System: differentiated P19 neurons
Experiment: Differentiated P19 excitotoxicity assay (glutamate/glycine-induced death, Alamar Blue)
Type: cell-based, murine
Details: 3 mM glutamate + 1 mM glycine; mean of three separate curves
Method: Alamar Blue fluorescence, an indicator of cell viability, was used to determine cell viability after an NMDA-induced cytotoxic insult. […] However, since raw fluorescence counts vary from experiment to experiment, FIGS. 2A, 2B, and 2C are expressed as a percent of control.
Glutamate toxicity dose response in the presence of a constant 1 mM glycine concentration was measured in the differentiated P19 neurons. The curve generated through the data points is the average of 6 separate dose response curves. Data points are represented as the percent of control cells ±standard error. % control=(([Glutamate]exp−[Glutamate]max)/(Controlvehicle−[Glutamate]max))×100. […]
Cell viability was determined. Compounds that prevented excitotoxicity were determined by measuring the percentage of viable cells compared to differentiated P19 cells that were not presented with a toxic insult (Table I).
Cell viability was measured using two methods. The first method was a confocal, single-cell fluorescence imaging-based method using the live cell dye carboxy-fluorescein diacetate (CFDA). […] CFDA fluorescence was measured using a modified Attofluor Imager device (Atto Instruments, Rockville Pike, Md.). […]
The second method for measuring cell viability was a plate reader method. […] Baseline fluorescence counts were read at room temperature in a Wallac plate reader immediately after addition of Alamar blue. […]

C[S+]([O-])c1ccc(-c2nc(-c3ccncc3)c(-c3ccc(F)cc3)[nH]2)cc1 (stereo not shown) [SB203580]
IC50 for Neuroprotection [lower-upper 95% C.I.]: Ineffective
